Literature values as cited in patent publication US7642088B2, “Device for susceptibility testing of bacterial pathogens and vaccine strains in poultry” (Lohmann Animal Health GmbH & Co. KG, priority 2004, dated 2010).
At least one compound was matched to its structure with a doubt left.

Experiments:
Details in all cases: taken from NCCLS, M31-A2, 2002; cited from earlier work
[1] = test system: Enterococcus faecalis ATCC 29212
[2] = test system: Staphylococcus aureus ATCC 29213
[3] = test system: Escherichia coli ATCC 25922

CN(C)[C@@H]1C(O)=C(C(N)=O)C(=O)[C@@]2(O)C(O)=C3C(=O)c4c(O)cccc4[C@@](C)(O)[C@H]3C[C@@H]12 [Tetracycline]
MIC range [1]: 8 to 32 µg/mL | MIC range [2]: 0.12 to 1 µg/mL | MIC range [3]: 0.5 to 2 µg/mL
